Measured data: PubChem BioAssay AID1224828 (NIAID, 2016)
This is an unselected part of about 17,000 reagents tested. 762 of them (4.5%) count as active. 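Active calls include both raised and lowered p65 entry, mostly lowered; wells with fewer than 50 cells lack a z-score.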 Raw values vary from plate to plate and are shown uncorrected. A number with no mark means an inactive call. Some reagents were tested in more than one well and are listed for each.

Purpose: 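Regulators linking TLR4 signalling to p65 nuclear translocation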 (primary screen)
System: mouse RAW264.7 G9 macrophage reporter cells (GFP-p65, Tnf promoter-mCherry)
Reagent: siRNA pool against mouse genes, 100 nM
Duration: 2 days siRNA transfection, then 40 min LPS before fixation
Treatment: LPS (Salmonella minnesota R595) at 10 ng/ml
Detection: 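Microscopy ratio of nuclear to perinuclear-ring GFP-p65 signal, scaled to the plate median; gene score is the average of two replicate robust z-scores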
Direction: p65 translocation robust z-score: higher = more nuclear NF-kappaB p65 after LPS than the plate median; nuclear/cytoplasmic p65 ratio: higher = more nuclear NF-kappaB p65
Active means: 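Active if robust z is above 3.3 (negative regulators) or below -1.56, the Tlr4 control median (positive regulators); activity score 50 or more; control wells not called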
Calls: active = hit (p65 shift raised or lowered); inactive = no clear change

target	p65 translocation robust z-score	nuclear/cytoplasmic p65 ratio, rep 1	nuclear/cytoplasmic p65 ratio, rep 2	low cell count flag
Cdca7l (GeneID 217946)	0.02	1.54	1.9	enough cells to score
Tha1 (GeneID 71776)	-2.37 (active)	1.2	1.13	enough cells to score
Eif1 (GeneID 20918)	-1.81 (active)	1.16	1.05	enough cells to score
Or52r1c (GeneID 259056)	-0.62	1.28	1.26	enough cells to score
Il1f10 (GeneID 215274)		1.35	1.3	fewer than 50 cells per well; well left out of scoring
Atp6v0a2 (GeneID 21871)	-1.54	1.32	1.35	enough cells to score
Mapk11 (GeneID 19094)	-0.38	1.52	1.42	enough cells to score
Ca8 (GeneID 12319)	-0.74	1.44	1.71	enough cells to score
Rgcc (GeneID 66214)	-0.57	1.47	1.58	enough cells to score
Sacs (GeneID 50720)	-0.6	1.33	1.33	enough cells to score
Ankrd16 (GeneID 320816)	-0.69	1.35	1.57	enough cells to score
Lysmd2 (GeneID 70082)	1.38	1.25	1.75	enough cells to score
Slc31a2 (GeneID 20530)		1.53	1.13	fewer than 50 cells per well; well left out of scoring
Fbxl14 (GeneID 101358)		1.26	1.57	fewer than 50 cells per well; well left out of scoring
Mllt10 (GeneID 17354)	1.17	1.6	1.49	enough cells to score
Adam33 (GeneID 110751)	-0.51	1.25	1.63	enough cells to score
Atp11a (GeneID 50770)	0.04	1.49	1.63	enough cells to score
Nol4 (GeneID 319211)	-0.13	1.7	1.47	enough cells to score
Pde3b (GeneID 18576)	-0.75	1.36	1.26	enough cells to score
Ppp2r2d (GeneID 52432)		1.48	1.08	fewer than 50 cells per well; well left out of scoring
1500015L24Rik (GeneID 68994)		1.18	1.01	fewer than 50 cells per well; well left out of scoring
Pla2g7 (GeneID 27226)	0.35	1.55	1.45	enough cells to score
Krt75 (GeneID 109052)	-0.82	1.35	1.28	enough cells to score
Sphk2 (GeneID 56632)	-0.44	1.72	1.32	enough cells to score
Bid (GeneID 12122)	0.09	1.64	1.62	enough cells to score
Dmrta2 (GeneID 242620)	-0.18	1.43	1.35	enough cells to score
Stk35 (GeneID 67333)	0.82	1.78	1.52	enough cells to score
Stk35 (GeneID 67333)		1.57	1.24	fewer than 50 cells per well; well left out of scoring
Pctp (GeneID 18559)	-0.39	1.39	1.18	enough cells to score
Stx4a (GeneID 20909)	-0.22	1.34	1.25	enough cells to score
Zfp790 (GeneID 233056)	1.56	1.51	1.73	enough cells to score
Or5p79 (GeneID 258738)		1.21	1.09	fewer than 50 cells per well; well left out of scoring
Or5w12 (GeneID 258654)	-1.07	1.51	1.41	enough cells to score
Crybg1 (GeneID 11630)	-0.13	1.56	1.69	enough cells to score
Hadh (GeneID 15107)	-0.39	1.55	1.34	enough cells to score
Efs (GeneID 13644)	0.2	1.48	1.41	enough cells to score
Pck2 (GeneID 74551)	1.86	1.8	1.76	enough cells to score
Pck2 (GeneID 74551)		1.55	1.62	fewer than 50 cells per well; well left out of scoring
Hs3st1 (GeneID 15476)	-2.52 (active)	1.28	1.2	enough cells to score
Gm2a (GeneID 14667)	0.4	1.49	1.42	enough cells to score
Onecut3 (GeneID 246086)		1.54	0.972	fewer than 50 cells per well; well left out of scoring
Asph (GeneID 65973)	-2.12 (active)	1.18	1.32	enough cells to score
Stk32c (GeneID 57740)	-0.1	1.46	1.37	enough cells to score
Or4c121 (GeneID 258969)	-0.38	1.65	1.48	enough cells to score
St6gal2 (GeneID 240119)	1.58	1.62	1.42	enough cells to score
Sppl2a (GeneID 66552)		1.44	1.49	fewer than 50 cells per well; well left out of scoring
Retreg3 (GeneID 67998)	0.14	1.49	1.53	enough cells to score
Nme3 (GeneID 79059)	-0.63	1.63	1.3	enough cells to score
Or2ag2 (GeneID 258350)	-0.99	0.986	1.15	enough cells to score
Xlr3c (GeneID 22446)	0.51	1.43	1.35	enough cells to score
Tktl1 (GeneID 83553)	0.08	1.44	1.62	enough cells to score
Lratd2 (GeneID 399603)	-0.74	1.43	1.48	enough cells to score
Gp1bb (GeneID 14724)	0.59	1.52	1.45	enough cells to score
Gadd45g (GeneID 23882)	-0.62	1.37	1.27	enough cells to score
Scrib (GeneID 105782)	-0.44	1.36	1.17	enough cells to score
Lmcd1 (GeneID 30937)	-2.55 (active)	1.31	1.13	enough cells to score
Tlr8 (GeneID 170744)	0.04	1.46	1.59	enough cells to score
St6galnac4 (GeneID 20448)	0.49	1.47	1.31	enough cells to score
Ifnab (GeneID 15974)		1.29	1.31	fewer than 50 cells per well; well left out of scoring
Lrfn1 (GeneID 80749)		1.7	1.48	fewer than 50 cells per well; well left out of scoring
Klhdc10 (GeneID 76788)	-0.83	1.49	1.49	enough cells to score
Trhr2 (GeneID 170732)	2.59	1.7	1.35	enough cells to score
Chmp2a (GeneID 68953)	0.21	1.62	1.43	enough cells to score
Slc35a3 (GeneID 229782)		1.35	1.33	fewer than 50 cells per well; well left out of scoring
Itgax (GeneID 16411)	-0.1	1.41	1.41	enough cells to score
Nr2c1 (GeneID 22025)	-1.54	1.22	1.24	enough cells to score
Polr3e (GeneID 26939)	-0.48	1.35	1.13	enough cells to score
Cacng4 (GeneID 54377)	-0.37	1.54	1.66	enough cells to score
Cdc26 (GeneID 66440)	-0.56	1.48	1.72	enough cells to score
Rnaseh2c (GeneID 68209)		1.68	1.73	fewer than 50 cells per well; well left out of scoring
AI661453 (GeneID 224833)	-0.6	1.63	1.36	enough cells to score
Gngt2 (GeneID 14710)	1.33	1.84	1.74	enough cells to score
Klhdc3 (GeneID 71765)	-0.09	1.56	1.4	enough cells to score
Defa3 (GeneID 13237)	-0.27	1.27	1.33	enough cells to score
Fip1l1 (GeneID 66899)	1.64	1.86	1.66	enough cells to score

Taken from above:
For “nuclear/cytoplasmic p65 ratio, rep 1”, Scrib (GeneID 105782) is entered as 1.36
Cacng4 (GeneID 54377), low cell count flag → enough cells to score
Entry of Mllt10 (GeneID 17354) in “low cell count flag”: enough cells to score
Entry for Gadd45g (GeneID 23882) under “p65 translocation robust z-score”: -0.62
Under “low cell count flag”, Lmcd1 (GeneID 30937) has enough cells to score (active)
Under “nuclear/cytoplasmic p65 ratio, rep 2”, Stk32c (GeneID 57740) shows 1.37
